Measured values reported in PubChem BioAssay (NCATS).
The inconclusive results got no clear call from the source; some entries with a clear call stand among them for comparison. Where the call is inconclusive, the potency comes from a doubtful curve fit. Calls of active or inactive are those of the source. Calls come from the whole dose curve; as a rule, active = well fitted inhibition curve with a large enough effect; inconclusive = small, poorly fitted or top-dose-only effect; inactive = no such curve, though single readings can be large or run the other way.
Potency is the fitted concentration of half-maximal effect.

By UniProt entry, the sequences of proteins in these tests, tags left out.
UniProt P08684, whole entry, looked up: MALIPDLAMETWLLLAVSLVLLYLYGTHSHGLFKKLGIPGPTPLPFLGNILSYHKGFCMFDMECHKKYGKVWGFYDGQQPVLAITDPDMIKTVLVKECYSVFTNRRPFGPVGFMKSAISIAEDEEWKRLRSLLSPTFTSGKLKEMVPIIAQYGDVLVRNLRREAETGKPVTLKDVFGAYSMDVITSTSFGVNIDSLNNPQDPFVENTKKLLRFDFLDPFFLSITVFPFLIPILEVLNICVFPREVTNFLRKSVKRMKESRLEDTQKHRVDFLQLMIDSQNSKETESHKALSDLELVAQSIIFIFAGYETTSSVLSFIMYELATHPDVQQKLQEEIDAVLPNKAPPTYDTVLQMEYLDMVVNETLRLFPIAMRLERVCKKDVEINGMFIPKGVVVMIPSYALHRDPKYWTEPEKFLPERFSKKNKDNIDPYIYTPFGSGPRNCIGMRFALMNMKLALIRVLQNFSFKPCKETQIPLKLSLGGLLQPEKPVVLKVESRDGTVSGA

These compounds were tested against Cytochrome P450 3A4 (Homo sapiens) (UniProt P08684) (assay: qHTS for inhibitors of CYP3A4 against the NCATS DSHEA and TCM libraries (AID 1919971)). Details: recombinant CYP3A4 enzyme activity, luminescence qHTS; series mostly up to 34.1 µM.
From the text: Assay Development and Screening Technology Laboratory (ADST)
National Center for Advancing Translational Sciences (NCATS), Rockville, MD
National Institute of Health (NIH), Bethesda, Maryland
Dietary Supplements and Natural Products have minor oversight of their safety and efficacy. We assembled a collection of Dietary Supplements and Natural Products (DSNP) as well as Traditional Chinese Medicinal (TCM) Plant extracts, which were screened against an in vitro panel of assays, including a liver cytochrome p450 enzyme panel, CAR/PXR signaling pathways, and P-gp transporter assays, to assess their activity. This pipeline facilitated the interrogation of Natural Product-Drug Interaction (NaPDI) through prominent metabolizing pathways. In addition, we compared the activity profiles of the DSNP/TCM substances with those of an approved drug collection. Many of the approved drugs have well-annotated mechanisms of action (MOA) while the MOAs for most of the DSNP and TCM samples remain unknown. Based on the premise that compounds with similar activity profiles tend to share similar targets or MOA, we clustered the library activity profiles to identify overlap with the NCATS Pharmaceutical Collection to predict the MOAs of the DSNP/TCM substances. Overall, we highlight four significant bioactivity profiles (measured by p-values) as examples of this prediction. To assess broad cytotoxicity, we employed screening against a HepG2 cell line. In addition, transporter-mediated drug interactions are utilized in the characterization of DDIs using a P-glycoprotein (P-gp) assays. To profile potential P-gp activity, a differential cell viability was measured against two cell lines: a parental KB-3-1 human cervical adenocarcinoma cell line and the drug-resistant subline KB-8-5-11 that overexpresses P-gp.
To this end, we profiled both collections for potential CAR and/or PXR activity, employing a previously published 1536-well qHTS assay.
[1] Lee TD, et al. A High-Throughput Screen of a Library of Therapeutics Identifies Cytotoxic Substrates of P-glycoprotein. Mol Pharmacol. Nov 2019;96(5):629-640. doi:10.1124/mol.119.115964
PROTOCOL TABLE (as described by Inglese J, Shamu CE and Guy RK. 2007)
SEQUENCE No. (e.g., 1, 2, 3, etc.); […] (e.g., Cells, Incubation, Reagent, etc.); VALUE; DESCRIPTION.
1; Reagent; 2 uL; cytochrome P450 enzyme and luciferin substrate or buffer only, white solid-bottom Greiner plate.
2; Compounds and control; 16 nL; Kalypsis pintool (Wako USA) equipped with a 1536-well pin head to transfer to the assay plates.
3; Incubation; 15 min; room temperature.
4; Reagent; 2 uL; nicotinamide adenine dinucleotide phosphate (NADPH).
5; Incubation; 30 - 45 min; room temperature in the dark.
6; Reagent; 4 uL; P450-Glo assay detection reagent.
7; Centrifuge; 1000 RPM; 15 seconds.
8; Incubation; 30 min; room temperature.
9; Read; Luminescence; ViewLux plate reader.
NOTES (numbers refer to Sequence numbers above)
1. A 2 uL mixture of corresponding enzymes and luciferin substrate (final concentrations CYP enzyme-specific and pro-luciferin substrate-specific) or minus-enzyme (assay buffer conditions supplied by the manufacturer for respective enzyme isoform; typically, 100 mM KPO4) and luciferin substrate were dispensed using a BioRAPTR FRD (Beckman Coulter, Brea, CA) into columns of a 1536-well white solid-bottom medium binding plate (Greiner Bio-One, Monroe, NC). Five isoforms of cytochrome P450 were used (CYP1A2, CYP2C9, CYP2C19, CYP2D6, and CYP3A4).
2. Substances (final concentrations of most substances ranged from 19.5 nM to 39.8 uM) and controls (CYP-specific) were transferred (16 nL) via pintool (Wako Automation, Richmond, VA). Intraplate controls furafylline (CYP1A2), sulfaphenazole (CYP2C9), ketoconazole (CYP2C19), quinidine (CYP2D6), and ketoconazole (CYP3A4) were used correspondingly.
3. Assay plates were incubated at room temperature for 15 min.
4-5. […]
In the case of `O=C(O)/C=C/c1ccccc1`, the Potency is reported as “inactive”. With `Cc1ncc(COP(=O)(O)O)c(C)c1O` the Potency was “inactive”. In the case of `O=C(O)[C@H]1O[C@@H](Oc2c(-c3ccc(O)c(O)c3)oc3cc(O)cc(O)c3c2=O)[C@H](O)[C@@H](O)[C@@H]1O`, the Potency is reported as inconclusive: 35.5 µM [inhibitor, partial curve, poor fit]. `CN(CC(=O)O)C(=N)N` was tested, and the Potency was “inactive”. `C=C1C[C@]23CC[C@H]4[C@@](C)(CCC[C@@]4(C)C(=O)O)[C@@H]2CC[C@@]1(O[C@@H]1O[C@H](CO)[C@@H](O)[C@H](O)[C@H]1O[C@@H]1O[C@H](CO)[C@@H](O)[C@H](O)[C@H]1O)C3` was tested, and the Potency was “inactive”. For `CCCCCCCC/C=C/CCCCCCCCCC(=O)O`, the Potency was inconclusive: 31.6 µM [inhibitor, partial curve, poor fit]. For `CC1=C2[C@H]([C@@H](C)CC[C@@H]2/C=C(\C)C(=O)O)[C@@H](O)C1`, the Potency was inconclusive: 4.47 µM [inhibitor, partial curve, poor fit]. In the case of `CC(=O)O[C@@H]1CC[C@@]2(C)[C@@H](CC[C@]3(C)[C@@H]2C(=O)C=C2[C@@H]4[C@@H](C)[C@H](C)CC[C@]4(C)CC[C@]23C)[C@@]1(C)C(=O)O`, the Potency is reported as inconclusive: 39.8 µM [inhibitor, partial curve, poor fit]. `CCCCCCCC/C=C/CCCCCCCC(=O)O` was tested, and the Potency was inconclusive: 28.2 µM [inhibitor, partial curve]. In the case of `C=C1CC[C@H]2C[C@@H]1C2(C)C`, the Potency is reported as “inactive”. For `CCCCC/C=C/C(=O)CCc1ccc(O)c(OC)c1`, the Potency was active: 17.8 µM. With `CCCCCCCC/C=C\CCCCCCCCCCCC(=O)O` the Potency was inconclusive: 28.2 µM [inhibitor, partial curve]. For `O=C(OC[C@H]1O[C@@H](OC(=O)c2cc(O)c(O)c(O)c2)[C@H](OC(=O)c2cc(O)c(O)c(O)c2)[C@@H](OC(=O)c2cc(O)c(O)c(O)c2)[C@@H]1O)c1cc(O)c(O)c(O)c1`, the Potency was active: 12.6 µM. For `C=C1CC/C=C(/C)CC[C@@H]2[C@@H]1CC2(C)C`, the Potency was inconclusive: 17.8 µM [inhibitor, partial curve]. `O=C(/C=C/c1ccc(O)c(O)c1)OC(Cc1ccc(O)c(O)c1)C(=O)O` (stereo unspecified) was tested, and the Potency was “inactive”. With `O=c1c(O[C@@H]2O[C@H](CO)[C@H](O)[C@H](O)[C@H]2O)c(-c2ccc(O)c(O)c2)oc2cc(O)cc(O)c12` the Potency was inconclusive: 28.2 µM [inhibitor, partial curve, poor fit]. `CCCCCCC/C=C/C(=O)CCc1ccc(O)c(OC)c1` was tested, and the Potency was active: 14.1 µM. For `CCCCC/C=C/C/C=C/CCCCCCCC(=O)O`, the Potency was active: 22.4 µM. In the case of `CCCCCCCCC[C@@H](O)CC(=O)CCc1ccc(O)c(OC)c1`, the Potency is reported as inconclusive: 15.8 µM [inhibitor, partial curve]. `Oc1cc(O)c2c(c1)O[C@@H](c1cc(O)c(O)c(O)c1)[C@H](O)C2` was tested, and the Potency was “inactive”. With `CC(C)=CCCC(C)=CCCC(C)=CCCC=C(C)CCC=C(C)CCC=C(C)C` the Potency was “inactive”. In the case of `C=C/C(C)=C/C/C=C(\C)CCC=C(C)C`, the Potency is reported as active: 28.2 µM. For `COc1cc(-c2oc3cc(O)cc(O)c3c(=O)c2O)ccc1O`, the Potency was active: 11.2 µM. In the case of `CC1(C)CC[C@]2(C(=O)O)CC[C@]3(C)C(=CCC4[C@@]5(C)CC[C@H](O)[C@@](C)(CO)C5CC[C@]43C)[C@H]2C1` (stereo partly specified), the Potency is reported as inconclusive: 11.2 µM [inhibitor, partial curve]. In the case of `C=C(C)[C@H]1CC=C(CO)CC1`, the Potency is reported as inconclusive: 28.2 µM [inhibitor, partial curve, poor fit]. `CCCCCCCC/C=C\CCCCCCCCCCCCCC(=O)O` was tested, and the Potency was inconclusive: 25.1 µM [inhibitor, partial curve, poor fit]. `O=C(/C=C/c1ccc(O)c2c1[C@H](C(=O)O)[C@@H](c1ccc(O)c(O)c1)O2)O[C@H](Cc1ccc(O)c(O)c1)C(=O)O` was tested, and the Potency was inconclusive: 15.8 µM [inhibitor, partial curve]. For `O=C(O[C@@H]1Cc2c(O)cc(O)cc2O[C@@H]1c1ccc(O)c(O)c1)c1cc(O)c(O)c(O)c1`, the Potency was inconclusive: 28.2 µM [inhibitor, partial curve]. With `C[C@@H]1CC[C@]2(C)CC[C@]3(C)C(=CC(=O)C4[C@@]5(C)CC[C@@H](O)[C@](C)(C(=O)O)C5CC[C@]43C)C2[C@H]1C` (stereo partly specified) the Potency was inconclusive: 15.8 µM [inhibitor, partial curve]. In the case of `C=C(C)C(CC=C(C)C)CC12CC(CC=C(C)C)C(C)(C)C(CC=C(C)C)(C(=O)/C(=C(\O)c3ccc(O)c(O)c3)C1=O)C2=O` (stereo unspecified), the Potency is reported as active: 14.1 µM. With `C=C[C@](C)(O)CCC=C(C)C` the Potency was inconclusive: 31.6 µM [inhibitor, single point].
